The source of these data is article PMC10626665.

Sequences of proteins named here, by UniProt entry; tags and fusion partners are left off.
UniProt P46940: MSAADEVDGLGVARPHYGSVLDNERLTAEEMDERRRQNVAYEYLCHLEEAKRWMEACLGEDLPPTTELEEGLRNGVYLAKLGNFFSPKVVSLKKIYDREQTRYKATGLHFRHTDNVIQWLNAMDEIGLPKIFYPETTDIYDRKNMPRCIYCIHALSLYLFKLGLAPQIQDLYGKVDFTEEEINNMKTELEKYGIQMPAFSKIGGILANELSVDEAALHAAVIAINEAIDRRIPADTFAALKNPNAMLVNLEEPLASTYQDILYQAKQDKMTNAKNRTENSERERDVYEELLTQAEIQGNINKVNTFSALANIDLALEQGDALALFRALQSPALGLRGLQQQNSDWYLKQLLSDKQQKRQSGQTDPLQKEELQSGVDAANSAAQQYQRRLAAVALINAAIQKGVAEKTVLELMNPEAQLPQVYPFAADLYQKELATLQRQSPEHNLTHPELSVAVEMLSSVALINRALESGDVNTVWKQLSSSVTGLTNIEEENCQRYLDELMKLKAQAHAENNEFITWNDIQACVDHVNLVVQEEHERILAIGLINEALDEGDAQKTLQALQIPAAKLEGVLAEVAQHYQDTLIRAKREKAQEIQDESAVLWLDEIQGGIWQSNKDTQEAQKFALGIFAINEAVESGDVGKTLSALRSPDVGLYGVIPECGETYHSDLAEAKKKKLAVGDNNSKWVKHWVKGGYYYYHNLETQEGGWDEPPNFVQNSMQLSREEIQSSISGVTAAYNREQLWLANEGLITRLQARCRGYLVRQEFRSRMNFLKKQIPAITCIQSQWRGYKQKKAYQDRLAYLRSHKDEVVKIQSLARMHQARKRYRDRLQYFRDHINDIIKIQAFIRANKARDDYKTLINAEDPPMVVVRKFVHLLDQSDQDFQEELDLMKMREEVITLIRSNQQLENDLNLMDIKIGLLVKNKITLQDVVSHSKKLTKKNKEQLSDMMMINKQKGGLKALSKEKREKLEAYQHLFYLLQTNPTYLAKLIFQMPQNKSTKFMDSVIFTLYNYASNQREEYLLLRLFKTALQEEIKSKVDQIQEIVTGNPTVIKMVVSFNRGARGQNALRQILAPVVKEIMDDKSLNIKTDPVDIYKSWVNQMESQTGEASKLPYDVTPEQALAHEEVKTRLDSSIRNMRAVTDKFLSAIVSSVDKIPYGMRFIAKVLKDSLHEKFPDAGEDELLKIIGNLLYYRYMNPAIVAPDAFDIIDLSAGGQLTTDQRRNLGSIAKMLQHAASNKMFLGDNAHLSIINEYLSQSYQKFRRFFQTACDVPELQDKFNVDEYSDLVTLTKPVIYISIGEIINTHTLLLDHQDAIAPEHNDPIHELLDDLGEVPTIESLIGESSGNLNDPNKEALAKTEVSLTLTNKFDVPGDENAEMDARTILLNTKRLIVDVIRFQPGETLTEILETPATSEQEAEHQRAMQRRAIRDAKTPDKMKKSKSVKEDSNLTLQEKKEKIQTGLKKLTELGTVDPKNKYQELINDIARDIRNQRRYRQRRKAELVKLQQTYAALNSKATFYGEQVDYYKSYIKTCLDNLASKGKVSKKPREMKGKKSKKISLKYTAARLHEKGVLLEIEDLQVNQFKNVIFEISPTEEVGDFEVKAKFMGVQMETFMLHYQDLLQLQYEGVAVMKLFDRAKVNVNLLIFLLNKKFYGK

The target in the assay is T1, MYL9 (human (endogenous in primary CAFs)) (UniProt P24844).
T1 sequence: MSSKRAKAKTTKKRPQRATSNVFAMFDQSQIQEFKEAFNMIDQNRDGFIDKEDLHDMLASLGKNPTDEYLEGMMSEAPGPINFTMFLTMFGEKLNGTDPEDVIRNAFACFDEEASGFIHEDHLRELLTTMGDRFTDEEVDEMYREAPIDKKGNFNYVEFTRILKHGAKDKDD
In words: affinity purification with mass spectrometry; 'protein spectral analysis' of MYL9 partners; no method described.

Results are given in words; binding and its absence hold for the method and conditions named. Binding seen in cells or lysates may run through a third protein. Here binding means that the protein was enriched with, or labelled near, the bait; the list need not be complete.

Take IQGAP1 (from UniProt P46940 1-1657): the binding entry is reported as “binds”.
